Experiment: Moulding process: time to stable tablets (consolidation/solidification time) and liquid amount after wetting the powder
Assay type: physicochemical
Details: for amount of water needed: per 100 mg powder; for optimal amount of liquid with regard to powder mass (μl liquid to mg powder): water
Method: α-Lactose anhydrate was transferred into wells of a moulding form and wetted with pure water and water/alcohol mixtures, as shown in FIG. 2. Pure water and aqueous EtOH solutions, 25% (v/v) and 50% EtOH (v/v), ratio by volume, were used as solvents. These experiments were performed to measure the time needed for the formation of stable tablets, to determine the optimal amount of solvent, and to determine the optimal water:alcohol ratio in water/alcohol mixtures.
The solidification time (time until the tablets show sufficient hardness for handling) after addition of the solvent was determined using pure water and an aqueous glucose solution. It was observed that the solidification time of anhydrous glucose is much shorter when glucose solutions are applied instead of pure water. Glucose anhydrate solidifies after 10-15 min when water is used but hardens within 2-6 minutes after the application of glucose solutions. The amount of glucose in the solution is less critical for the solidification time, a concentration of 25 wt % is sufficient.
The moulding form tests were carried out with two different solvents: a) water and b) 50% EtOH (v/v) solution.
In a first experiment, tablets with amorphous Ca-L-Lactate (L-CaLac) using pure water were produced.
Wetting partly anhydrous MgSO4 (7 wt % water content) with pure water results in solid tablets. After 5 minutes the tablets can be unbaged from the moulding form. The wettability is not as good as for the α-lactose powders. About 50-60 μl water were added per 100 mg powder. By using a saturated aqueous solution of MgSO4 the hardening time could be halved (2-3 minutes).

SMILES | amount of water needed | Powder/liquid ratio (μl liquid to mg powder) (solution: water, moulding) | amount of liquid relative to powder mass needed (aqueous ethanol solutions) | optimal amount of liquid with regard to powder mass (μl liquid to mg powder) | Powder/liquid ratio (μl liquid to mg powder) (solution: aqueous glucose solution (25-50 wt %)) [%]
O=S(=O)([O-])[O-].[Na+].[Na+] [Na2SO4 anhydrate] | about 18 μl | ca. 15%^ |  |  | 
OC[C@H]1O[C@@H](O[C@H]2[C@H](O)[C@@H](O)[C@@H](O)O[C@@H]2CO)[C@H](O)[C@@H](O)[C@H]1O [Stable α-Lactose anhydrate] |  | 50-60% | 90-100% | 50-60% | 
C[C@H](O)C(=O)[O-].C[C@H](O)C(=O)[O-].[Ca+2] [Ca-Lactate anhydrate, anhydrous Ca-Lactate] |  | 35-40% |  | 40% | 
O=S(=O)([O-])[O-].[Mg+2] [MgSO4 anhydrate] |  | 50-60% |  | 50-60% | 
O.O=S(=O)([O-])[O-].O=S(=O)([O-])[O-].[Ca+2].[Ca+2] [Calcium sulphate hemihydrate, reference compound] |  | 100% |  |  | 
O=C([O-])CC(O)(CC(=O)[O-])C(=O)[O-].O=C([O-])CC(O)(CC(=O)[O-])C(=O)[O-].[Mg+2].[Mg+2].[Mg+2] [Mg Citrate anhydrate, anhydrous Mg Citrate] |  | 40-50% |  |  | 
OC[C@H]1OC(O)[C@H](O)[C@@H](O)[C@@H]1O (stereo partly drawn) [Glucose anhydrate] | ca. 30 μl | 30% |  |  | 30
OC[C@H]1O[C@H](OC[C@H]2O[C@H](O[C@]3(CO)O[C@H](CO)[C@@H](O)[C@@H]3O)[C@H](O)[C@@H](O)[C@@H]2O)[C@H](O)[C@@H](O)[C@H]1O [Raffinose anhydrate] |  | ca. 30%^ |  |  | 

— patent US20220339110A1, “FAST CONSOLIDATING COMPOUNDS” (Universität Innsbruck, priority 2019, published 2022)
